Measurements published in publication PMC9977679.
These are yes or no findings as the source states them, for the method shown. Binding seen in cells or lysates may run through a third protein. Some binding calls cover weakened binding; strength is not graded here.

Target: T1, Nrf2 (mouse) (UniProt Q60795)
T1 sequence: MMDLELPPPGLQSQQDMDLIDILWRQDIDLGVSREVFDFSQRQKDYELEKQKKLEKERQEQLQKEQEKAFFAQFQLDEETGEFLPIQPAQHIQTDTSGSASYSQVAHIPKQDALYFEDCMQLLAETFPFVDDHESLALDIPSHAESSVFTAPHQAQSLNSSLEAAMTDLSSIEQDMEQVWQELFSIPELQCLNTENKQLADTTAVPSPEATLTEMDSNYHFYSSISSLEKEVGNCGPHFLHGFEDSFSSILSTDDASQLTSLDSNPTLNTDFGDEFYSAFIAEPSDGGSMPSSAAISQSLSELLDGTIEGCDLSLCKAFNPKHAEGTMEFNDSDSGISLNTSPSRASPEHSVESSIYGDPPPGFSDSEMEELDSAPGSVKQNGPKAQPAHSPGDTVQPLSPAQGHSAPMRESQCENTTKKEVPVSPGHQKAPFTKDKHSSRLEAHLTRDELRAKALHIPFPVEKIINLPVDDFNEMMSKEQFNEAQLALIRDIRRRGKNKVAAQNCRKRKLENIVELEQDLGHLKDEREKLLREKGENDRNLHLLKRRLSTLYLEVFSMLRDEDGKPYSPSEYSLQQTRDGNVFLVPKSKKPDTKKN
Experiment: co-IP; 293T cells overexpressing mouse Snx25 and Nrf2; lysis in 50 mM Tris pH 7.4, 150 mM NaCl, 1% NP-40, 0.5% deoxycholic acid; lysate immunoprecipitated with anti-Nrf2 rabbit IgG on Protein G magnetic beads for 1 h, immunoblot with anti-SNX25; normal IgG as negative control

B1: sorting nexin (SNX)25 (protein, UniProt Q3ZT31 1-840)
chain: MDRVLRDVFDYSYRDYILSWYGNLSRDDGQLYHLLLDDFWEIVKQIRQRLSHVDVVKVVCNDIVKALLTHFCDLKAATARHEEQPRPFVLHACLKDSHDEVRFLQTCSQVLVLCLLPSKDIQSLSLRTMLAEILTTKVLKPVVELLSNPDYINQMLLRQLEYREQMSEHHKRAYTYAPSYEDFIKLINSNSDVDFLKQLRYQIVVEIIQATTISSFPQLKRHKGKESAAMKTDLLRARNMKRYINQLTVAKKQCEKRIRILGGPAYDQQEDGASDEGEGPQSQKILQFEDIMTNPFYRERFGTYMERIDKRALVGFWESAEHLKNANKSEIPQLVSEMYQNFFVESKEISVEKSLYKEIQQCLVGNRGIEVFSKIQADVSEVLRERYYPSFLVSDLYEKLMREEEEEEPDAQLASEKDELGSGGEAGEEAVEGTSGVSDPASFAVIKLRELNEKLEYKRQALSSIQNAPKPDKKIISKLKDEILLIEKECTALQLHMARTDWWCENLGLWRASITSAEVTEENGEQMPCYFVRVNLQEVGGVETKNWTVPRRLSEFQNLHRKLSECVPSLKKVQLPSLSKLPFKSIDHKFLGKSRNQLNAFLQNLLSDERLFQSEALYAFLSPSPDYLKVIDVQGKKTSFSLSSFLEKLPRDFFSHQEEEIEEDSDLSDYGDDVDGKKDSLAEPCFMLIGEIFELRGMFKWVRRTLIALVQVTFGRTINKQIRDTVSWISSEQMLVYYISAFRDAFWPNGKLAPPTRIRSVAQSQETKQRAQQKLLENIPDTLQSLVGQQNARHGIIKIFKALQETKANKHLLYVLMELLLTELCPELRAHLDQFKAGQV
  binding: binds
